# Measured values: the supplement of paper PMC8728848
# The other results are listed elsewhere or left out.
# B1: AntigenI/IIA3VP1 (Streptococcus mutans), C9E3B4 (protein)
# chain: AANEADYQAKLTAYQTELARVQKANADAKAAYEAAVAANNAANAALTAENTAIKKRNADAKADYEAKLAKYQADLAKYQKDLADYPVKLKAYEDEQASIKAALAELEKHKNEDGNLTEPSAQNLVYDLEPNANLSLTTDGKFLKASAVDDAFSKSTSKAKYDQKILQLDDLDITNLEQSNDVASSMELYGNFGDKAGWSTTVSNNSQVKWGSVLLERGQSATATYTNLQNSYYNGKKISKIVYKYTVDPKSKFQGQKVWLGIFTDPTLGVFASAYTGQVEKNTSIFIKNEFTFYDEDGKPINFDNALLSVASLNREHNSIEMAKDYSGKFVKISGSSIGEKNGMIYATDTLNFKQGEGGSRWTMYKNSQAGSGWDSSDAPNSWYGAGAIKMSGPNNYVTVGATSATNVMPVSDMPVVPGKDNTDGKKPNIWYSLNGKIRAVNVPKVTKEKPTPPVKPTAPTKPTYETEKPLKPAPVAPNYEKEPTPPTRLEHHHHHH
# What was measured:
# Test in all cases: glycan array binding signal (z-score within array); higher = stronger binding
# Conditions in all cases: glycan notation: IUPAC condensed, linker removed
# [1] = biological target: Gal(b1-4)GlcNAc(b1-3)Gal(b1-4)GlcNAc(b1-3)Gal(b1-4)GlcNAc(b1-2)Man(a1-3)[Gal(b1-4)GlcNAc(b1-3)Gal(b1-4)GlcNAc(b1-3)Gal(b1-4)GlcNAc(b1-2)Man(a1-6)]Man(b1-4)GlcNAc(b1-4)GlcNAc
# Method in brief: (§1)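 Glycan array data came from 3228 arrays in the Consortium for Functional Glycomics database, and only arrays with an available protein sequence were kept. Glycan names were put into IUPAC-condensed notation, and columns mapping to the same glycan were averaged. The binding signal is a within-array Z-score, averaged across arrays of one protein sequence run at different concentrations or buffers and across linkers. A negative Z-score can be read as non-binding.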
# [2] = biological target: Gal(b1-4)GlcNAc(b1-3)Gal(b1-4)GlcNAc(b1-3)Gal(b1-4)GlcNAc(b1-2)Man(a1-3)[Gal(b1-4)GlcNAc(b1-3)Gal(b1-4)GlcNAc(b1-3)Gal(b1-4)GlcNAc(b1-2)Man(a1-6)]Man(b1-4)GlcNAc(b1-4)[Fuc(a1-6)]GlcNAc
# Method in brief: as §1
# [3] = biological target: Gal(b1-4)GlcNAc(b1-3)Gal(b1-4)GlcNAc(b1-3)Gal(b1-4)GlcNAc(b1-2)[Gal(b1-4)GlcNAc(b1-3)Gal(b1-4)GlcNAc(b1-3)Gal(b1-4)GlcNAc(b1-6)]Man(a1-6)[Gal(b1-4)GlcNAc(b1-3)Gal(b1-4)GlcNAc(b1-3)Gal(b1-4)GlcNAc(b1-2)Man(a1-3)]Man(b1-4)GlcNAc(b1-4)[Fuc(a1-6)]GlcNAc
# Method in brief: as §1
# [4] = biological target: Gal(b1-4)GlcNAc(b1-3)Gal(b1-4)GlcNAc(b1-3)Gal(b1-4)GlcNAc(b1-3)Gal(b1-4)GlcNAc(b1-2)Man(a1-3)[Gal(b1-4)GlcNAc(b1-3)Gal(b1-4)GlcNAc(b1-3)Gal(b1-4)GlcNAc(b1-3)Gal(b1-4)GlcNAc(b1-2)Man(a1-6)]Man(b1-4)GlcNAc(b1-4)GlcNAc
# Method in brief: as §1
# [5] = biological target: Gal(b1-4)GlcNAc(b1-3)Gal(b1-4)GlcNAc(b1-3)Gal(b1-4)GlcNAc(b1-3)Gal(b1-4)GlcNAc(b1-2)Man(a1-3)[Gal(b1-4)GlcNAc(b1-3)Gal(b1-4)GlcNAc(b1-3)Gal(b1-4)GlcNAc(b1-3)Gal(b1-4)GlcNAc(b1-2)Man(a1-6)]Man(b1-4)GlcNAc(b1-4)[Fuc(a1-6)]GlcNAc
# Method in brief: as §1
# [6] = biological target: Gal(b1-4)GlcNAc(b1-3)Gal(b1-4)GlcNAc(b1-3)Gal(b1-4)GlcNAc(b1-3)Gal(b1-4)GlcNAc(b1-2)[Gal(b1-4)GlcNAc(b1-3)Gal(b1-4)GlcNAc(b1-3)Gal(b1-4)GlcNAc(b1-3)Gal(b1-4)GlcNAc(b1-6)]Man(a1-6)[Gal(b1-4)GlcNAc(b1-3)Gal(b1-4)GlcNAc(b1-3)Gal(b1-4)GlcNAc(b1-3)Gal(b1-4)GlcNAc(b1-2)Man(a1-3)]Man(b1-4)GlcNAc(b1-4)[Fuc(a1-6)]GlcNAc
# Method in brief: as §1
# [7] = biological target: Gal(b1-4)GlcNAc(b1-3)Gal(b1-4)GlcNAc(b1-3)Gal(b1-4)GlcNAc(b1-3)Gal(b1-4)GlcNAc(b1-3)Gal(b1-4)GlcNAc(b1-2)Man(a1-3)[Gal(b1-4)GlcNAc(b1-3)Gal(b1-4)GlcNAc(b1-3)Gal(b1-4)GlcNAc(b1-3)Gal(b1-4)GlcNAc(b1-3)Gal(b1-4)GlcNAc(b1-2)Man(a1-6)]Man(b1-4)GlcNAc(b1-4)GlcNAc
# Method in brief: as §1
# [8] = biological target: Gal(b1-4)GlcNAc(b1-3)Gal(b1-4)GlcNAc(b1-3)Gal(b1-4)GlcNAc(b1-3)Gal(b1-4)GlcNAc(b1-3)Gal(b1-4)GlcNAc(b1-2)Man(a1-3)[Gal(b1-4)GlcNAc(b1-3)Gal(b1-4)GlcNAc(b1-3)Gal(b1-4)GlcNAc(b1-3)Gal(b1-4)GlcNAc(b1-3)Gal(b1-4)GlcNAc(b1-2)Man(a1-6)]Man(b1-4)GlcNAc(b1-4)[Fuc(a1-6)]GlcNAc
# Method in brief: as §1
# [9] = biological target: Gal(b1-4)GlcNAc(b1-3)Gal(b1-4)GlcNAc(b1-3)Gal(b1-4)GlcNAc(b1-3)Gal(b1-4)GlcNAc(b1-3)Gal(b1-4)GlcNAc(b1-2)[Gal(b1-4)GlcNAc(b1-3)Gal(b1-4)GlcNAc(b1-3)Gal(b1-4)GlcNAc(b1-3)Gal(b1-4)GlcNAc(b1-3)Gal(b1-4)GlcNAc(b1-6)]Man(a1-6)[Gal(b1-4)GlcNAc(b1-3)Gal(b1-4)GlcNAc(b1-3)Gal(b1-4)GlcNAc(b1-3)Gal(b1-4)GlcNAc(b1-3)Gal(b1-4)GlcNAc(b1-2)Man(a1-3)]Man(b1-4)GlcNAc(b1-4)[Fuc(a1-6)]GlcNAc
# Method in brief: as §1
# [10] = biological target: Gal(b1-4)GlcNAc(b1-3)Gal(b1-4)GlcNAc(b1-3)Gal(b1-4)GlcNAc(b1-3)Gal(b1-4)GlcNAc(b1-3)Gal(b1-4)GlcNAc(b1-3)Gal(b1-4)GlcNAc(b1-2)Man(a1-3)[Gal(b1-4)GlcNAc(b1-3)Gal(b1-4)GlcNAc(b1-3)Gal(b1-4)GlcNAc(b1-3)Gal(b1-4)GlcNAc(b1-3)Gal(b1-4)GlcNAc(b1-3)Gal(b1-4)GlcNAc(b1-2)Man(a1-6)]Man(b1-4)GlcNAc(b1-4)GlcNAc
# Method in brief: as §1
# [11] = biological target: Gal(b1-4)GlcNAc(b1-3)Gal(b1-4)GlcNAc(b1-3)GalNAc
# Method in brief: as §1
# [12] = biological target: Gal(b1-4)GlcNAc(b1-3)Gal(b1-4)GlcNAc(b1-3)[Gal(b1-4)GlcNAc(b1-3)Gal(b1-4)GlcNAc(b1-6)]GalNAc
# Method in brief: as §1
# [13] = biological target: Gal(b1-4)GlcNAc(b1-3)Gal(b1-4)GlcNAc(b1-6)[Gal(b1-3)]GalNAc
# Method in brief: as §1
# [14] = biological target: Gal(b1-4)GlcNAc(b1-3)Gal(b1-4)[Fuc(a1-3)]GlcNAc(b1-3)Gal(b1-4)[Fuc(a1-3)]GlcNAc
# Method in brief: as §1
# [15] = biological target: Gal(b1-4)GlcNAc(b1-3)GalNAc
# Method in brief: as §1
# [16] = biological target: Gal(b1-4)GlcNAc(b1-3)[Fuc(a1-3)GlcNAc(b1-6)]Gal(b1-4)Glc
# Method in brief: as §1
# [17] = biological target: Gal(b1-4)GlcNAc(b1-3)[Gal(b1-4)GlcNAc(b1-6)]Gal(b1-4)GlcNAc
# Method in brief: as §1
# [18] = biological target: Gal(b1-4)GlcNAc(b1-3)[GlcNAc(b1-6)]Gal(b1-4)GlcNAc
# Method in brief: as §1
# [19] = biological target: Gal(b1-4)GlcNAc(b1-6)Gal(b1-4)GlcNAc
# Method in brief: as §1
binder,measurement,setting,value
B1,glycan array binding signal (z-score),[1],0.927
same,glycan array binding signal (z-score),[2],1.39
same,glycan array binding signal (z-score),[3],1.81
same,glycan array binding signal (z-score),[4],2.52
same,glycan array binding signal (z-score),[5],3.27
same,glycan array binding signal (z-score),[6],2.27
same,glycan array binding signal (z-score),[7],2.2
same,glycan array binding signal (z-score),[8],1.3
same,glycan array binding signal (z-score),[9],1.71
same,glycan array binding signal (z-score),[10],3.91
same,glycan array binding signal (z-score),[11],2
same,glycan array binding signal (z-score),[12],0.339
same,glycan array binding signal (z-score),[13],-0.398
same,glycan array binding signal (z-score),[14],-0.717
same,glycan array binding signal (z-score),[15],-1.15
same,glycan array binding signal (z-score),[16],-0.738
same,glycan array binding signal (z-score),[17],0.6
same,glycan array binding signal (z-score),[18],0.525
same,glycan array binding signal (z-score),[19],-0.192

# An excerpt of these results, tab-delimited.
binder	measurement	setting	value
B1	glycan array binding signal (z-score)	[2]	1.39
same	glycan array binding signal (z-score)	[12]	0.339
same	glycan array binding signal (z-score)	[13]	-0.398
same	glycan array binding signal (z-score)	[16]	-0.738
same	glycan array binding signal (z-score)	[17]	0.6
